Results: PubChem BioAssay AID602313 (National Center for Advancing Translational Sciences (NCATS), 2012)
Screen size: about 390,000 compounds; about 760 (0.19%) were called active. This list was built around the results that the source calls inconclusive (neither active nor inactive); the mix of calls is not that of the screen. Calls follow the shape of the dose curve; as a rule, active = well fitted inhibition curve with a large enough effect; inconclusive = small, poorly fitted or top-dose-only effect; inactive = flat fitted curve, though single readings scatter. Where the call is inconclusive, the potency comes from a doubtful curve fit.

test: qHTS for Inhibitors of Vif-A3F Interactions: qHTS; conditions: HeLa A3F-eYFP + Vif (tagged APOBEC3F with the HIV-1 protein that degrades it), YFP fluorescence increase; series mostly up to 46.1 µM; also: nearly all actives have a fitted effect of over 65% in size
In short: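 Fluorescence increase (Ex 488/Em 500-530) after overnight compound treatment at 37 deg C flags inhibition of Vif-driven A3F-eYFP loss in stable HeLa A3F-eYFP/Vif cells seeded overnight beforehand.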
Potency is read from the fitted curve at half-maximal effect.

Structure (SMILES)	Potency
Cc1cc(C)nc(-n2ncc3c2CC(c2ccccc2)CC3=O)n1 (stereo not drawn)	inconclusive: 31.6 µM [inhibitor, single point]
COc1ccc(C2C=C(c3ccccc3)Nc3nc(NS(=O)(=O)c4ccc(Cl)cc4)nn32)cc1 (stereo not drawn)	inconclusive: 20 µM [inhibitor, partial curve, poor fit]
CNc1ccc(Br)cc(C(=O)/C=C/c2ccc(Cl)cc2Cl)c1=O	inconclusive: 4.47 µM [inhibitor, single point]
COc1cc(CN2CCN(S(=O)(=O)c3ccccc3)CC2)cc(OC)c1O	inactive
COc1cc(-c2ccc(Nc3ccccc3C(=O)O)c(OC)c2)ccc1Nc1ccccc1C(=O)O	inactive
CCN1/C(=C2/SC(=S)N(NC(C)=O)C2=O)Sc2ccccc21	inconclusive: 31.6 µM [inhibitor, single point]
CC(C)NC(=O)/C(C#N)=C/c1ccc(N(C)C)o1	inconclusive: 22.4 µM [inhibitor, single point]
COc1ccc(CCNC(=O)CN(CCc2ccccc2)S(C)(=O)=O)cc1	inconclusive: 7.08 µM [inhibitor, partial curve, poor fit]
CCC(C)(C)NC(=O)C(c1cccc(OC)c1OC)N(Cc1ccc(OC)cc1)C(=O)CCC(=O)Nc1cc(C)on1 (stereo not drawn)	inconclusive: 35.5 µM [inhibitor, single point]
CC(=O)Nc1ccc(-c2cc(N)n(-c3ccccc3)n2)cc1	inactive
Nc1nc(-c2ccc(NC(=O)c3ccco3)cc2)cs1	inconclusive: 5.62 µM [inhibitor, single point]
CCOC(=O)C1(CCc2ccccc2)CCN(Cc2ccccn2)CC1	inconclusive: 28.2 µM [inhibitor, single point]
CC(=O)Nc1sc(/C(C#N)=C/c2ccc(Cl)c(Cl)c2)nc1-c1ccc(C)cc1	inconclusive: 2.24 µM [inhibitor, full curve, poor fit]
CCOc1ccc2oc(=O)cc(CN3CCN(C(=O)c4ccc(F)cc4)CC3)c2c1	inactive
CC(=O)N1/C(=C/c2ccc(N(C)C)cc2)C(=O)c2ccccc21	inconclusive: 17.8 µM [inhibitor, partial curve, poor fit]
COc1cccc(NC(=O)Cn2c(=O)n(-c3ccc(C)cc3)c(=O)c3ccc(C(=O)NCc4ccco4)cc32)c1	inconclusive: 11.2 µM [inhibitor, partial curve, poor fit]
Cc1ccc(S(=O)(=O)Oc2ccc(/C=C3\N=C(c4cccc(C)c4)OC3=O)cc2)cc1	inactive
COc1cc(CSC)nc(-c2ccccc2)n1	inconclusive: 15.8 µM [inhibitor, single point]
CN1C=C/C(=C\c2cc[n+](C)c3ccccc23)c2ccccc21	inconclusive: 25.1 µM [inhibitor, single point]
CCN1CCN(CCCNC(=O)c2ccc(/C=C3/Oc4ccccc4N(Cc4cccc(C)c4)C3=O)cc2)CC1	inconclusive: 4.47 µM [inhibitor, full curve, poor fit]
CCOC(=O)/C(=C/c1ccc(N2CCC(c3ccccc3)=N2)cc1)C(C)=O	inconclusive: 8.91 µM [inhibitor, partial curve, poor fit]
NS(=O)(=O)c1ccc(NC(=O)COC(=O)c2ncc(Cl)c(Cl)c2Cl)cc1	inactive
CC(=O)C12CCCCC1CC1[C@@H]3CC(C)C4=CC(=O)CC[C@]4(C)C3CC[C@@]12C (stereo partly drawn)	inactive

Structure (SMILES)	Potency
S=c1[nH]nc(COc2ccccc2)n1/N=C/c1cccc(Cl)c1Cl	inactive
N#Cc1ccc(OCC(=O)N/N=C2/CC(c3ccccc3)Oc3ccccc32)cc1 (stereo not drawn)	inconclusive: 31.6 µM [inhibitor, partial curve, poor fit]
Cc1ccc(CNC(=O)CCS(=O)(=O)c2cc(Br)cc3c2N(C(=O)C2CC2)CC3)o1	inactive
Cc1c(O)ccc(NC(=O)/C=C/c2ccccc2)c1C	inactive
O=C(N/N=C/C(Br)=C/c1ccccc1)c1ccccc1F	inconclusive: 5.62 µM [inhibitor, single point]
O=C(N/N=C/c1ccccc1)c1ccc2c(c1)OCO2	inactive
NNc1ccc(Cl)nn1	inconclusive: 35.5 µM [inhibitor, single point]
CN(C)S(=O)(=O)c1ccc(C(=O)Nc2nnc(-c3ccc4c(c3)CCCC4)o2)cc1	inconclusive: 5.62 µM [inhibitor, single point]
CCOc1cc(CNC(=O)C2COc3ccccc3C2)cc(OCC)c1OCC (stereo not drawn)	inactive
CCn1c(SCc2ccc(F)cc2)nnc1C1CCN(S(=O)(=O)c2ccc(OC)cc2)CC1	inactive
S=c1[nH]nc(C2CCCCC2)n1/N=C/c1cccc(Cl)c1Cl	inconclusive: 3.55 µM [inhibitor, single point]
CC(C)=C1CCC(C)CC1=NNC(N)=S (stereo not drawn)	inconclusive: 28.2 µM [inhibitor, single point]
CCNC(=S)N/N=C/c1ccccc1[N+](=O)[O-]	inconclusive: 31.6 µM [inhibitor, single point]
Cc1ccccc1NCC(=O)N=Nc1c(O)[nH]c2ccc([N+](=O)[O-])cc12	inconclusive: 35.5 µM [inhibitor, single point]
Cc1cccc(Oc2nc3c(C)cccn3c(=O)c2/C=C(\C#N)c2nc3ccccc3[nH]2)c1	inconclusive: 35.5 µM [inhibitor, single point]
CSc1cccc(NC(=S)N2CCC(N(C)C3CCCCC3C)CC2)c1 (stereo not drawn)	inactive
O=C(NCCc1ccccc1Cl)c1ccc(Cn2c(=O)c3cccn3c3cccnc32)cc1	inconclusive: 2.82 µM [inhibitor, partial curve, poor fit]
CCc1nc2ccccc2n1CCCCOc1ccc(C)cc1	inconclusive: 3.55 µM [inhibitor, partial curve, poor fit]
CC(=O)c1cc(NC(=O)c2ccc(Cl)cc2)c(=O)oc1/C=C/N(C)C	inconclusive: 25.1 µM [inhibitor, single point]
c1ccc(CNc2ncnc3c2oc2ccccc23)nc1	inactive
CN(C)c1ccc(C=C2SC(=S)NC2=O)cc1	inconclusive: 10 µM [inhibitor, partial curve, poor fit]
Cc1cccc(CCNc2nc3ccc(C)cc3n3cnnc23)c1	inconclusive: 14.1 µM [inhibitor, single point]
COc1ccc(/C=C/C(=O)NC(=S)N2CCN(c3ccccn3)CC2)cc1OC	inconclusive: 35.5 µM [inhibitor, single point]

Structure (SMILES)	Potency
CCCCCn1c(SCCc2ccccc2)nc2c1c(=O)[nH]c(=O)n2C	inactive
Cc1ccc2c(Sc3ccc(Cl)cc3)c(C(=O)N3CCC(C)CC3)[nH]c2c1	inconclusive: 25.1 µM [inhibitor, single point]
COc1ccc(CNS(=O)(=O)c2cnc(N)nc2)c(OC)c1	inactive
Cc1nc(C)c(C(=O)N(c2ccc(F)cc2)C(C(=O)NCC2CCCO2)c2ccccc2)s1 (stereo not drawn)	inactive
CCOC(=O)N/N=C1\CC(C)S(=O)(=O)c2ccc(Cl)cc21 (stereo not drawn)	inconclusive: 35.5 µM [inhibitor, single point]
O=C(/C=C/c1ccc(OCCCF)cc1)Nc1ccnc(-c2cccnc2)n1	inconclusive: 22.4 µM [inhibitor, partial curve, poor fit]
O=c1[nH]c(-c2ccccc2)nc(CN2CCCCC2)c1O	inconclusive: 35.5 µM [inhibitor, single point]
Cc1ccc(OCc2ccc(C(=O)NCc3cccnc3)cc2)cc1C	inconclusive: 35.5 µM [inhibitor, single point]
O=C(N/N=C/c1ccccn1)c1ccc(Cl)cc1	inactive
CC(=O)Nc1ccc(NC(=O)c2ccc(NS(=O)(=O)c3cccc4cccnc34)cc2)cc1	inconclusive: 35.5 µM [inhibitor, single point]
Cc1ccccc1NC(=O)CSc1nnc(-c2ccccc2)n1-c1ccccc1	inactive
CCOc1ccccc1NC(=O)C1CCN(S(=O)(=O)c2c(C)noc2/C=C/c2ccc(C)cc2)CC1	inactive
Cc1cc2oc(=O)cc(-c3ccccc3)c2c(C)c1-c1ccc(O)cc1	inconclusive: 22.4 µM [inhibitor, single point]
CCOc1ccccc1Nc1nc(N)nc(CSc2nccc(C)n2)n1	inactive
Fc1ccccc1N=C1Nc2cccc3cccc1c23	inconclusive: 35.5 µM [inhibitor, single point]
Cc1cccc(NC(=S)Nc2cccc(C(F)(F)F)c2)n1	inconclusive: 2.82 µM [inhibitor, partial curve, poor fit]
Cc1nnc(SCC(=O)Nc2cc(-c3cc(C)c(C)cc3C)nn2-c2ccccc2)s1	inactive
CCCNC(=O)COC(=O)c1cc(-c2ccc(OC)cc2)nc2ccccc12	inconclusive: 35.5 µM [inhibitor, partial curve, poor fit]
CC(O)CNCc1ccc(Cl)cc1Cl (stereo not drawn)	inconclusive: 22.4 µM [inhibitor, single point]
COP(=O)(OC)c1ccc(NCc2cc(O)ccc2O)cc1	inconclusive: 22.4 µM [inhibitor, single point]
O=C(Cn1c(=O)n(Cc2ccc3c(c2)OCO3)c(=O)c2oc3ccccc3c21)Nc1ccccc1	inconclusive: 14.1 µM [inhibitor, single point]
COc1cc(/C=C/C(=O)c2ccc(Cl)s2)cc(OC)c1O	inconclusive: 35.5 µM [inhibitor, single point]
